# From PubChem BioAssay AID1347423 (Functional Genomics Laboratory (NCATS/FGL), 2020)
# Hit rate of the full screen: of about 52,000 sequences, about 210 (0.4%) were called active.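 How the source made its calls: active means gene whose silencing raises cell survival under the drug, median off-target-corrected z-score across its silencing RNAs 2 or more; inactive means the rest.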 The list shows a part of the results.
# Assay: Resistance to Poly (ADP-Ribose) Polymerase inhibitor: Gene Identification via Genome-wide siRNA Screen
# Settings: mouse BRCA2 R2336H ES cells, olaparib, CellTiter-Glo viability; active compounds read high
# How it was run: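 Genome-wide siRNA screen (3 siRNAs/gene, 20 nM) in mouse ES cells carrying hypomorphic BRCA2 R2336H; olaparib 500 nM added 48 h post-transfection, CellTiter-Glo viability 72 h later. Normalized to plate-median negative control; MAD z-scores, gene median, seed-adjusted.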
row,Sequence,z-score
1,CCUCUACAUUCCAGCCAUGTT against Yif1b,inactive: -0.398
2,GCUGCAUCGAAAAACUCAGTT against Phr1,inactive: 0.7
3,CCUUCUUGUGGGAGUGAAATT against Chodl,inactive: -0.64
4,CGCAUCAACAAAUUUACAATT against Kcnh7,inactive: 0.675
5,GGCAAAAAUGAGAAAGAGATT against Hebp2,inactive: -0.218
6,GCUAAUAUACCUCUCAAAATT against 1300003B13Rik,inactive: 0.721
7,CGUUGGAUCUUGAUAAAACTT against Edg4,inactive: 0.325
8,CCGAAUCUCUGUGUACUAUTT against Tubb5,inactive: -0.325
9,GCCCACUCAUUCAUGGAAATT against 2410004J23Rik,inactive: 0.523
10,GCACUGAUGAUGUGGUGGCTT against 1500032L24Rik,inactive: 0.935
11,GGACUGAAUCAAGUAGAGUTT against Dkk2,inactive: 0.661
12,GGUAAACCAAACAAAACCATT against Rpl35a,inactive: -0.512
13,UGUGGUGAACCCAAUGCACTT against Klk22,inactive: -1.05
14,GGUUGUUUAAACUCAGUUUTT against Slco4c1,inactive: -1.83
15,CCAAUAACUUCGCUUAUAUTT against Ms4a2,inactive: 0.801
16,GGCAAAAACUAUGAACUACTT against Ctsd,inactive: 1.13
17,GGAGUGGUCAGCCAAACUUTT against Entpd3,inactive: 0.105
18,CCUCACAAGAGGCCUGUGUTT against Fstl1,inactive: -3.23
19,GGCCAUUACUCAAAUGUAUTT against Ppp2r2d,inactive: 0.155
20,GCUCUUUGAGACUAGGCCCTT against Cmya1,inactive: 0.749
21,GGAUACAGCAGAUCUUAUUTT against 2410007P03Rik,inactive: -1.33
22,GCCAGUUUCCGCAUCUACCTT against Hoxa7,inactive: -0.502
23,GGCUAUGCUUGAGGGAGUGTT against Oog4,inactive: -0.0182
24,GGCCACACAGAAUAGCUCUTT against Taf6l,inactive: 0.419
25,GGCAUUAGGAUACAUAACATT against 1700047E16Rik,inactive: 0.789
26,GGAAGAUCAUAAUGGACAGTT against Pcsk9,inactive: 0.187

row,Sequence,z-score
1,GCAAGGCUUGGGUAACCAUTT against Apbb1ip,inactive: -0.851
2,GCAUCAAGGCUCAUAUGAUTT against Taf15,inactive: 1.05
3,CGUAUUGCCUUAGUGUAUGTT against Olfr433,inactive: 0.29
4,GCCAUGAGACACCUUCUCUTT against Olfr843,inactive: -0.106
5,GUUAUUUGUAUGGUGAGAUTT against Hpcal1,inactive: -0.459
6,GGAACUCAGAGCUAAACUUTT against 3110010F15Rik,inactive: -0.404
7,GCUUCUAAGCCGAAGGCCATT against Hist1h1d,inactive: 0.442
8,CCAAGAGUAACCUCUACAATT against Hivep3,inactive: -0.148
9,GGAGAUACUAUGUUGCAUUTT against Fgf9,inactive: 0.673
10,GCAGCAUCCAACUUCCGCUTT against Gpr43,inactive: -0.97
11,GGAACAUCUUCACUUAGUATT against Kcna6,inactive: -0.698
12,CCAUUUUCUCAGUGAUCAATT against Taar7a,inactive: -0.516
13,GGAUUACCUGGAGAAGUACTT against Pga5,inactive: -0.871
14,GGACAUGGCACAUCAAGUCTT against Rpusd4,inactive: 0.486
15,GGCCAUGAUUGUGUUUCAGTT against Tm4sf3,inactive: 2.8
16,GGAAUGACGUGGUGUAUCATT against 4633402D15Rik,inactive: -0.773
17,GGUGUUGAACAAGUGCGACTT against 1700008P20Rik,inactive: 0.944
18,CCUACGGGAAACGAAAGCUTT against A730085E03Rik,inactive: 1.1
19,GGUUGUCGGAACCAACCCATT against Lrp5,inactive: -0.0172
20,GGGAUUCUGGAAAUCUUUGTT against Esr2,inactive: 0.365
21,CCUUUUUGACAUUGUGAUUTT against Nt5c2l1,inactive: 0.4
22,GGGAGUGAUGUUCUUAUUGTT against Slc35f2,inactive: 0.111
23,GGAAAUCCGAUAAACCACUTT against Grik1,inactive: -0.7
24,GGACAAUCUGAUUCAAGUATT against Ms4a2,inactive: 2.46
25,GGACUGCAUGAGAUUUCCCTT against Rhoc,inactive: 0.687
26,GGUUGAACUCUUCUGGGAUTT against Gm191,inactive: 1.5

# Reprinted at random: 3 records from the list, in no set order.
row,Sequence,z-score
23,GGAAAUCCGAUAAACCACUTT against Grik1,inactive: -0.7
21,CCUUUUUGACAUUGUGAUUTT against Nt5c2l1,inactive: 0.4
13,GGAUUACCUGGAGAAGUACTT against Pga5,inactive: -0.871

# Next records follow:

row,Sequence,z-score
1,GGACACAGAAUGUUCUUGGTT against Rps3,inactive: -3.09
2,GGAGGAGUCCCAUAACUCATT against Nurit,inactive: 0.0134
3,GGACAGAAAGCAAAGGCACTT against Gpr24,inactive: -0.211
4,GGAAGAAAACAAUCAGAUGTT against Cd209a,inactive: 0.147
5,GGGUCUAUUUUAAACCCUUTT against 2610019P18Rik,inactive: 0.8
6,GGUAGUUCAGAGACACGGGTT against Otos,inactive: -1.21
7,CCUGGAACUUUUCCCUUAUTT against Olfr232,inactive: -1.25
8,GGAACAAGAGAUUGAGCAUTT against 2610529H08Rik,inactive: 2.62
9,CGCGCUUUUUAGCAAAUAUTT against Hoxa7,inactive: -0.859
10,CCAGUCGUGUUACAAUGUUTT against 4933439F11Rik,inactive: -0.776
11,CCUCAGAUUUCAACCAUAGTT against 2700087I09Rik,inactive: 1.64
12,GCCAACUUUGCCAUUAAAATT against 1110061N23Rik,inactive: 0.25
13,GCAUCAGUAUGAGAUUAGGTT against Ccne2,inactive: 0.24
14,GCAAUAGAUCUGGUCCUUUTT against Olfr552,inactive: -1.07
15,GGUCAAUAUUCUUAUGUCCTT against Edg3,inactive: 1.41
16,GCUCUUGAGCCUACAACUGTT against Pmfbp1,inactive: -0.55
17,GGUCAUGGAAGAAGCAAAGTT against 5730555F13Rik,inactive: 2.7
18,GGUUUGAUGACAAAUACACTT against 5730406I15Rik,inactive: 0.884
19,GGUCAAUGCUACUAAUGAATT against 4921520G13Rik,inactive: -0.197
20,GGCUAAAAACUACCUCCUGTT against D930050H05Rik,inactive: 1.23
21,GGCAAAGUGAUAUUUUCAATT against Slc6a12,active: 1.85
22,GGUAAAUGCAGAGGGAACATT against Ak5,inactive: -0.291
23,GCCCUGGCCACAUGUAGUUTT against Olfr98,inactive: 0.371
24,GGAUGUUUUCCAGUAUGAATT against Nox1,inactive: 0.482
25,GUAGUUAGGAACUCUUGCUTT against BC051244,inactive: -0.535
26,GGAAGGUUGUCUUACUUUUTT against Pkd2,inactive: -0.438

# Another view of part of the listing above:
row | Sequence | z-score
4 | CGCAUCAACAAAUUUACAATT against Kcnh7 | inactive: 0.675
5 | GGCAAAAAUGAGAAAGAGATT against Hebp2 | inactive: -0.218
6 | GCUAAUAUACCUCUCAAAATT against 1300003B13Rik | inactive: 0.721
7 | CGUUGGAUCUUGAUAAAACTT against Edg4 | inactive: 0.325

# Going on with the list.

row,Sequence,z-score
1,GGAGUUACGGGAUUCCGUUTT against Kras2,inactive: -0.0682
2,GAAGUCUGUGACCAGUUCCTT against A930011G24,inactive: 0.445
3,GGAAGCAGUACCUUCAUCGTT against 0610009K11Rik,inactive: 0.203
4,GCGAACUGAUCAUCAACCGTT against Zfp566,inactive: 1.37
5,CCAAGUUCUUUAGUUAAAGTT against Fshb,inactive: -0.478
6,GCUCGAUUGACCUCAUUCATT against Rhbdl6,inactive: -2.57
7,CGGAAGUUCCUCAUUGCAUTT against Ftcd,inactive: -0.611
8,GGCAGUGAGAACCAAGUUUTT against Ccl24,inactive: -1.87
9,GGCUUUGGAAUCAUUCAUATT against BC028265,inactive: -0.949
10,GCUGGUGAGUCACUGAUGATT against Surf5,inactive: 0.855
11,GCUAUAUGGUUGAAGAUUUTT against Ptprj,inactive: 1.86
12,CCUAAAAUACCUUUGUGAGTT against Nfkbie,inactive: -0.908
13,GAUGGACAGAAAUCAGGAGTT against Centd2,inactive: -1.52
14,CGAGCAAUGGCAGAUGAGCTT against D17Wsu104e,inactive: 0.906
15,GCAAAAUCUAGGGAUAAGATT against A630098A13Rik,inactive: -1.29
16,CCAAGGACUCUCAUCUGUUTT against 4933409D10Rik,inactive: 0.0662
17,GCUUCAACAUCAGUUUGGGTT against Olfr1392,inactive: 0.413
18,GGUGUUUGCCAUGUUCGCATT against Avpr1a,inactive: 0.789
19,GGAGAAGCUGUUUGUUCUGTT against Ftcd,inactive: 0.513
20,CCUUUAUAACUGUGGUUGGTT against LOC432736,inactive: -0.0187
21,GUCUCAAAUUUAUCCUGAUTT against Mapbpip,inactive: -0.686
22,GGUUAAAACGAGCAACGUGTT against 2310079F23Rik,inactive: 1.1
23,CCUUUUUGAGGAAUUUGGATT against A630086M08Rik,inactive: -0.414
24,GGAUAAAGUCUUCAGGUGGTT against Olfr1499,inactive: -0.168
25,GCUUGUGCGGGUGAUAGACTT against BC027073,inactive: -1.7
26,GGCGGACUGUUACUUCACCTT against H2-Ob,inactive: 0.179
